{
  "source": "paper PMC4353692",
  "target": "Manduca sexta V-ATPase subunit a (Manduca sexta (endogenous in midgut))",
  "assay": "cryo-EM structure; M. sexta V-ATPase holoenzyme purified from tissue, in C12E10; 9.4 Å reconstruction (gold standard FSC 0.143); homology models of the subunits flexibly fitted by MDFF; side chains not resolved; both purified",
  "note": "Results are given in words; binding and its absence hold for the method and conditions named. Binding can be weak; no strength is given.",
  "data": [
    {"binder": "Manduca sexta V-ATPase subunit G (protein, UniProt Q25532 1-117) MASQTHGIQQLLAAEKRAAEKVSEARKRKAKRLKQAKEEAQDEVEKYRQERERQFKEFEAKHMGTREGVAAKIDAETRIKIDEMNKMVQTQKEAVIKDVLNLVYDIKPELHINYRVV", "values": [
      {"measurement": "binding", "result": "binds"}
    ]}
  ]
}
